# According to PubChem BioAssay AID504467 (National Center for Advancing Translational Sciences (NCATS), 2011):
# The campaign covered roughly 330,000 compounds. About 7,700 (2.3%) were called active. This list was built around the results that the source calls inconclusive (neither active nor inactive); the mix of calls is not that of the screen. Calls come from the whole dose curve; as a rule, active = well fitted inhibition curve with a large enough effect; inconclusive = small, poorly fitted or top-dose-only effect, or effect the other way; inactive = flat fitted curve, though single readings scatter. Potencies beside an inconclusive call are fits to weak or partial responses and may not hold up.
# Assay: qHTS screen for small molecules that inhibit ELG1-dependent DNA repair in human embryonic kidney (HEK293T) cells expressing luciferase-tagged ELG1; note: nearly all actives have a fitted effect of over 55% in size
# Settings: HEK293T ELG1-luciferase reporter, luminescence, 16 h, DNA damage induced by 5-fluorouridine; series mostly up to 46.1 µM
# Method in brief: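 In this reporter screen, reduction of luminescence relative to DMSO vehicle indicated activity. Compounds and 5-fluorouridine were added together to 2,000 cells per well, incubated for 16 hr at 37 °C, then developed with ONE-Glo.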
# Potency is the fitted concentration of half-maximal effect.
row,Structure (SMILES),Potency
1,CN=c1scc(-c2ccccc2F)n1/N=C/c1ccc[nH]1,"inconclusive: 0.058 µM [activator, full curve, poor fit]"
2,COc1cc(NCc2ccccc2)c2ncn(Cc3ccccc3)c2c1,inactive
3,Cc1cc(NC2CCCC2)n2ncc(-c3ccccc3)c2n1,"inconclusive: 0.259 µM [activator, partial curve, poor fit]"
4,CCN(Cc1ccccc1)S(=O)(=O)c1cc(C(=O)NC(C)C2CC3CCC2C3)ccc1OC (stereo not given),active: 6.51 µM
5,O=C1CCCc2[nH]c3cccc(/C(=C/c4ccccc4)c4ccccc4)c3c21,inactive
6,O=C(N/N=C/c1ccccc1O)C1CC(=O)N(c2ccc(Cl)cc2)C1 (stereo not given),"inconclusive: 3.26 µM [inhibitor, single point]"
7,COc1ccc(S(=O)(=O)NCC(c2ccc(F)cc2)N2CCN(C)CC2)cc1 (stereo not given),inactive
8,COc1ccc(C)cc1NC(=O)C1CCCN(S(=O)(=O)c2ccc(-n3cnnn3)cc2)C1 (stereo not given),"inconclusive: 29.1 µM [inhibitor, single point]"
9,OCCCc1cn(Cc2ccccc2)c2ccccc12,inactive
10,O=C(NC1CCCCC1)c1ccc(-n2cncn2)c([N+](=O)[O-])c1,inactive
11,COc1ccc(OC)c(S(=O)(=O)N(C(C)=O)c2ccc3oc(=O)sc3c2)c1,"inconclusive: 32.6 µM [inhibitor, partial curve, poor fit]"
12,Cc1ccc(CCNC(=O)CS(=O)Cc2nc(-c3ccccc3F)oc2C)cc1 (stereo not given),"inconclusive: 0.164 µM [inhibitor, full curve, poor fit]"
13,O=C(OCC(=O)N1CCCC1)c1cc(=O)c2ccccc2o1,"inconclusive: 29.1 µM [activator, single point]"
14,O=C(CSc1ccccc1)Nc1ccccc1N1CCOCC1,inactive
15,COc1ccc(OCc2cc(C(=O)N3CCCC(OC)C3)no2)c2ccccc12 (stereo not given),"inconclusive: 11.6 µM [activator, partial curve]"
16,COC(=O)c1ccc(OCCOCCOc2cccc3ccc(C)nc23)cc1,"inconclusive: 29.1 µM [inhibitor, single point]"
17,O=C(NC(=S)N1CCCCCC1)C1CC1,inactive
18,CCOc1ccc(CCNC(=O)c2ccc(CS(=O)Cc3ccccc3Cl)o2)cc1 (stereo not given),active: 23.1 µM
19,Cc1ccc(-c2nn(-c3ccccc3)cc2CC(=S)N2CCOCC2)cc1,"inconclusive: 18.3 µM [inhibitor, single point]"
20,Fc1ccc(/C=N/Nc2nc(-c3cccnc3)nc3ccccc23)cc1,"inconclusive: 29.1 µM [inhibitor, single point]"

# Not a retest: entries from further up.
row,Structure (SMILES),Potency
8,COc1ccc(C)cc1NC(=O)C1CCCN(S(=O)(=O)c2ccc(-n3cnnn3)cc2)C1 (stereo not given),"inconclusive: 29.1 µM [inhibitor, single point]"
9,OCCCc1cn(Cc2ccccc2)c2ccccc12,inactive
